# The whole screen tested about 340,000 compounds, of which about 4,500 (1.3%) were called active. This list was built around the results that the source calls inconclusive (neither active nor inactive); the mix of calls is not that of the screen. Calls come from the whole dose curve; as a rule, active = well fitted inhibition curve with a large enough effect; inconclusive = small, poorly fitted or top-dose-only effect, or another doubt; inactive = no such curve, though single readings can be large or run the other way. Where the call is inconclusive, the potency comes from a doubtful curve fit.
# Molecular target: DNA polymerase beta (Homo sapiens) (UniProt P06746)
# Experiment: qHTS Assay for Inhibitors of DNA Polymerase Beta
# Conditions: Pol beta primer extension/strand displacement, fluorescence kinetic; activity change, negative = inhibition: at 114 µM (top of the series)
# Method in brief: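 Curves were derived by four-parameter Hill fits of normalized qHTS data. The kinetic fluorescent primer-extension read was taken at 0 and 10 min after 50 nM substrate, following a 15 min room-temperature preincubation of 10 nM enzyme with compounds.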
# % is set by controls: 0 for no effect and ±100 for the full control effect; potency is the fitted concentration of half-maximal effect.
SMILES,Potency,"activity change, negative = inhibition"
COC(=O)COc1ccc(S(=O)(=O)Nc2ccc(C(N)=O)cc2)cc1,"inconclusive: 89.1 µM [inhibitor, single point]",
CCc1ccc(NC(=O)c2cc(S(=O)(=O)N3CCc4ccccc43)cn2C)cc1,"inconclusive: 0.794 µM [inhibitor, full curve]",
Cc1cccc(N2CCN(Cc3ccoc3)CC2)c1C,"inconclusive: 0.1 µM [inhibitor, full curve, poor fit]",
CCC(=O)c1ccc(OCC(=O)Nc2ccccc2N2CCCCC2)cc1,,inactive: 38.5%
O=C(c1cc2cc(Cl)ccc2[nH]1)N1CCN(C(=O)c2ccco2)CC1,"inconclusive: 56.2 µM [inhibitor, single point]",
COc1ccc(CC(=O)OCC(=O)Nc2ncc(Cl)cc2Cl)cc1,"inconclusive: 44.7 µM [inhibitor, partial curve]",
O=C(N/N=C/c1ccccn1)c1ccc(N/N=C/c2ccccn2)cc1,"inconclusive: 39.8 µM [inhibitor, partial curve]",
COCCCNC(=O)c1oc2c(c1C)-c1nn(Cc3ccccc3Cl)cc1CC2,,inactive: 1.54%
COc1ccc(/C=N\NC(=O)c2ccc(-c3ccccc3)cc2)c(OC)c1OC,,inactive: -0.838%
Cc1c(N=C2SCC(=O)N2c2c(C)n(C)n(-c3ccccc3)c2=O)c(=O)n(-c2ccccc2)n1C,"inconclusive: 0.141 µM [inhibitor, full curve]",
O=[N+]([O-])c1ccc(N2CCCCC2)nc1N1CCCCC1,"inconclusive: 3.98 µM [inhibitor, single point]",
CCOC(=O)c1cnc2[nH]c3ccccc3n2c1=O,"inconclusive: 89.1 µM [inhibitor, single point]",
CCOC(=O)Cc1cn2c(=O)cc(CSCC(=O)Nc3ccc(C)c(C)c3)nc2s1,"inconclusive: 20 µM [inhibitor, full curve]",
O=C(Cn1nnc(-c2cccc(C(F)(F)F)c2)n1)N1CCCCCC1,"inconclusive: 0.141 µM [inhibitor, full curve, poor fit]",
O=C(Nc1ccccc1)C(c1ccccc1)c1ccccc1,"inconclusive: 0.794 µM [inhibitor, full curve, poor fit]",
c1ccc(-n2nnc3ccccc32)cc1,,inactive: 5.95%
O=C1N/C(=N\N=C\c2ccco2)SC1Cc1ccc(F)cc1 (stereo not given),"inconclusive: 1.78 µM [inhibitor, full curve, poor fit]",
COCCNC(=O)c1cccc(NS(=O)(=O)c2cccc3cccnc23)c1,,inactive: 7.76%
N/C(=N\N=C\c1ccc2c(c1)OCO2)c1nonc1N,,inactive: 6.49%
Cc1ccc(C(=O)Nc2ccc3nc(SCC(=O)N4CCCc5ccccc54)sc3c2)cc1,,inactive: 8.22%
Cc1cccc(OCC(=O)NCC(=O)N=Nc2c(O)[nH]c3ccc([N+](=O)[O-])cc23)c1,active: 44.7 µM,
Cc1cn2c(=O)cc(COc3ccccc3NC(=O)c3ccco3)nc2s1,,inactive: 32.6%
CCOc1ccc(OCc2ccc(C(=O)N3CCc4ccccc4C3)o2)cc1,"inconclusive: 31.6 µM [inhibitor, full curve]",
C=CCn1c(SCC(=O)NCC2CCCO2)nc2scc(-c3ccco3)c2c1=O (stereo not given),active: 7.08 µM,
COCCCNC(=O)CCCn1c(=O)c2cccn2c2ccccc21,,inactive: 0.364%

# In a second layout: entries from further up.
SMILES | Potency | activity change, negative = inhibition
N/C(=N\N=C\c1ccc2c(c1)OCO2)c1nonc1N |  | inactive: 6.49%
Cc1ccc(C(=O)Nc2ccc3nc(SCC(=O)N4CCCc5ccccc54)sc3c2)cc1 |  | inactive: 8.22%
Cc1cccc(OCC(=O)NCC(=O)N=Nc2c(O)[nH]c3ccc([N+](=O)[O-])cc23)c1 | active: 44.7 µM | 

# Additional structures:

SMILES,Potency,"activity change, negative = inhibition"
CC(C)(C)c1ccc(C(=O)NNc2cc(N3CCOCC3)nc(N3CCOCC3)n2)cc1,"inconclusive: 89.1 µM [inhibitor, single point]",
CCOC(=O)c1c(C)c(-c2ccccc2)n(CC(=O)Nc2cc(C)cc(C)c2)c1C,,inactive: 1.63%
C=CCSC1=N/C(=C\c2cc(OCC)c(OC(C)=O)c([N+](=O)[O-])c2)C(=O)S1,active: 20 µM,
CCOC(=O)C1CCN(C(=O)Nc2ccc3c(c2)nc(C)n3C)CC1,,inactive: -1.67%
COc1ccc(N2CC(C(=O)Nc3nnc(SCCC4OCCO4)s3)CC2=O)cc1 (stereo not given),active: 14.1 µM,
CCc1ccccc1NC(=O)c1ccc2c(c1)nnn2C1CCCC1,,inactive: -1.14%
CNS(=O)(=O)c1cccc(C(=O)NCC2(N3CCCCC3)CCCCC2)c1,"inconclusive: 22.4 µM [inhibitor, full curve]",
COc1cccc2cc(-c3nnc(SCC(=O)Nc4nc(C)cs4)n3C)oc12,"inconclusive: 44.7 µM [inhibitor, partial curve]",
CCc1ccccc1NC(=S)NC1CC2CCCC(C1)N2Cc1cccs1 (stereo not given),"inconclusive: 89.1 µM [inhibitor, single point]",
CCOC(=O)c1cnc(SCC(=O)Nc2nc(C)c(C)s2)nc1N,,inactive: 1.4%
Cc1ccc(C)c(S(=O)(=O)Nc2cc(SCC(=O)O)c(O)c3ccccc23)c1,active: 79.4 µM,
CCCOc1ccc(C2C(C(=O)c3ccc(C)o3)=C(O)C(=O)N2Cc2ccco2)cc1 (stereo not given),active: 39.8 µM,
CC(/C=C/c1ccc(N(C)C)cc1)=N\N=C1\NC(=O)CC(C(=O)Nc2ccccc2)S1 (stereo not given),"inconclusive: 28.2 µM [inhibitor, full curve]",
Cc1ccc2nc3c(cc(C(=O)NCc4ccco4)c(=N)n3Cc3ccco3)c(=O)n2c1,"inconclusive: 31.6 µM [inhibitor, partial curve]",
CCN(CCCNC(=O)c1ccc(Sc2ccc(Cl)cc2)c(NC(C)=O)c1)c1ccccc1,,inactive: -17.9%
COc1ccc(C(=O)Nc2c(Cl)cc(Cl)cc2C(=O)N2CCOCC2)cc1,"inconclusive: 31.6 µM [inhibitor, single point]",
O=C(CSc1nnc(NC(=O)c2ccccc2Cl)s1)Nc1ccc2c(c1)oc1ccccc12,active: 31.6 µM,
COc1ccc(CCN2C(=O)c3[nH]nc(-c4ccccc4O)c3C2c2ccccc2)cc1 (stereo not given),"inconclusive: 89.1 µM [inhibitor, single point]",
Cc1nnc(NC(=O)CCSCCC(=O)Nc2nnc(C)s2)s1,active: 28.2 µM,
CC(=O)Nc1ccc(NC(=O)CSc2ccc(-c3ccco3)nn2)cc1,active: 39.8 µM,
COc1ccc(NC(=O)C2=C(C)Nc3ncnn3C2c2ccc[nH]2)cc1 (stereo not given),active: 79.4 µM,
Cc1cc(C)c(S(=O)(=O)NCCc2csc3nc(-c4ccc(Cl)cc4)nn23)c(C)c1,,inactive: -0.451%
CC(NCc1ccccc1)c1ccccc1O (stereo not given),"inconclusive: 79.4 µM [inhibitor, single point]",
CCN1CCN(CC(=O)Nc2ccc(Cl)c(Cl)c2)C(=O)C1=O,"inconclusive: 50.1 µM [inhibitor, partial curve]",
O=C(CSc1nnc2scc(-c3ccccc3)n12)Nc1nsc(-c2ccccc2)n1,"inconclusive: 11.2 µM [inhibitor, full curve]",

# Copied from the entries so far (two entries):
SMILES,Potency,"activity change, negative = inhibition"
Cc1ccc(C(=O)Nc2ccc3nc(SCC(=O)N4CCCc5ccccc54)sc3c2)cc1,,inactive: 8.22%
Cc1cccc(OCC(=O)NCC(=O)N=Nc2c(O)[nH]c3ccc([N+](=O)[O-])cc23)c1,active: 44.7 µM,

# (further entries)

SMILES,Potency,"activity change, negative = inhibition"
COc1ccc(C)cc1-n1nnnc1SC/C(O)=C(\C#N)c1nc2ccccc2[nH]1,"inconclusive: 56.2 µM [inhibitor, partial curve]",
Cc1nc2ccccn2c1C(=O)N/N=C/c1ccc(CNC(=O)C(=O)Nc2ccccc2)o1,"inconclusive: 15.8 µM [inhibitor, full curve]",
O=C(Nc1nnc(-c2ccc(Cl)cc2)o1)Nc1ccccc1F,,inactive: -0.236%
O=C1/C(=N\S(=O)(=O)c2cccs2)C([n+]2ccccc2)=C([O-])c2ccccc21,,inconclusive: -38.6% [inhibitor]
CCOC(=O)c1c(S(=O)(=O)NCC(=O)N(C)c2ccc(C)cc2)c(C)n(C)c1C,,inactive: 6.88%
Cc1ccc(C)c(CN2C(=O)c3ccccc3S(=O)c3ccc(C(=O)NCCC4=CCCCC4)cc32)c1 (stereo not given),,inactive: 14.9%
Cc1ccccc1OCc1ccc(-c2nc(C#N)c(N3CCC(C(N)=O)CC3)o2)o1,"inconclusive: 100 µM [inhibitor, single point]",
CC(=O)Nc1ccc(S(=O)(=O)NCCS(=O)(=O)N2CCN(c3ccccc3F)CC2)cc1,"inconclusive: 100 µM [inhibitor, single point]",
CC(=O)c1ccc(N=Nc2ccc(C)cc2)cc1,,inactive: 23.5%
COc1ccc(C=C2C(=O)c3ccccc3C2=O)cc1O,,inactive: -5.29%
COc1ccc(NCc2ccc([N+](=O)[O-])s2)c(OC)c1,active: 22.4 µM,
Cc1ccccc1/C=N/Nc1ncnc2nc[nH]c12,,inconclusive: -36.6% [inhibitor]
CC(C)(O)C(O)COc1c2ccoc2cc2oc(=O)ccc12 (stereo not given),active: 22.4 µM,
Cc1ccc(C(C[N+](=O)[O-])Sc2ccc(N)cc2)cc1 (stereo not given),,inactive: -2.09%
CCCc1ccc(C(=O)NNC(=O)c2ccc(Cl)cc2)cc1,active: 31.6 µM,
Cc1ccc(NC(=O)CN2C(=O)S/C(=C\c3ccc(-c4cccc(C(=O)O)c4C)o3)C2=O)cc1C,active: 10 µM,
COc1ccccc1Cn1cc(C(=O)c2ccc(C)cc2)c(=O)c2cc(F)cc(F)c21,,inactive: 3.2%
COc1cccc(CN(C(=O)c2cccc(C)c2)C2CCS(=O)(=O)C2)c1 (stereo not given),,inactive: 28.4%
CC(C)(C)N1CC(C(=O)O)CC1=O (stereo not given),"inconclusive: 89.1 µM [inhibitor, single point]",
C=CCc1cc(/C=C/c2nc(O)c([N+](=O)[O-])c(=O)[nH]2)cc(OC)c1O,active: 25.1 µM,
C=C1CCN([C@H](C(=O)NCc2cc(OC)c(OC)c(OC)c2)C(C)C)S(=O)(=O)c2ccccc21,"inconclusive: 50.1 µM [inhibitor, partial curve]",
COc1cc(/C=N/NC(N)=O)ccc1OCC(=O)Nc1ccc(C)c(C)c1,"inconclusive: 89.1 µM [inhibitor, partial curve, poor fit]",
COC(=O)c1cc(O)c(O)c(O)c1,"inconclusive: 31.6 µM [inhibitor, full curve]",
CCOC(=O)N1CCN(C2=Nc3cccc4cccc2c34)CC1,"inconclusive: 79.4 µM [inhibitor, single point]",
O=C(N/N=C/c1ccc(O)cc1)c1ccc(COc2cc(Cl)ccc2Cl)o1,"inconclusive: 79.4 µM [inhibitor, single point]",
